Assay results reported in publication PMC4838878.
No constants are given. Whether binding was seen depends on the method and setting. Binding can be weak; no strength is given.

The chains behind the UniProt entries cited, without tags or fusion partners. Where a name states a change or a piece, a line headed by the entry shows the natural chain unless it says otherwise.
UniProt Q6UXZ4: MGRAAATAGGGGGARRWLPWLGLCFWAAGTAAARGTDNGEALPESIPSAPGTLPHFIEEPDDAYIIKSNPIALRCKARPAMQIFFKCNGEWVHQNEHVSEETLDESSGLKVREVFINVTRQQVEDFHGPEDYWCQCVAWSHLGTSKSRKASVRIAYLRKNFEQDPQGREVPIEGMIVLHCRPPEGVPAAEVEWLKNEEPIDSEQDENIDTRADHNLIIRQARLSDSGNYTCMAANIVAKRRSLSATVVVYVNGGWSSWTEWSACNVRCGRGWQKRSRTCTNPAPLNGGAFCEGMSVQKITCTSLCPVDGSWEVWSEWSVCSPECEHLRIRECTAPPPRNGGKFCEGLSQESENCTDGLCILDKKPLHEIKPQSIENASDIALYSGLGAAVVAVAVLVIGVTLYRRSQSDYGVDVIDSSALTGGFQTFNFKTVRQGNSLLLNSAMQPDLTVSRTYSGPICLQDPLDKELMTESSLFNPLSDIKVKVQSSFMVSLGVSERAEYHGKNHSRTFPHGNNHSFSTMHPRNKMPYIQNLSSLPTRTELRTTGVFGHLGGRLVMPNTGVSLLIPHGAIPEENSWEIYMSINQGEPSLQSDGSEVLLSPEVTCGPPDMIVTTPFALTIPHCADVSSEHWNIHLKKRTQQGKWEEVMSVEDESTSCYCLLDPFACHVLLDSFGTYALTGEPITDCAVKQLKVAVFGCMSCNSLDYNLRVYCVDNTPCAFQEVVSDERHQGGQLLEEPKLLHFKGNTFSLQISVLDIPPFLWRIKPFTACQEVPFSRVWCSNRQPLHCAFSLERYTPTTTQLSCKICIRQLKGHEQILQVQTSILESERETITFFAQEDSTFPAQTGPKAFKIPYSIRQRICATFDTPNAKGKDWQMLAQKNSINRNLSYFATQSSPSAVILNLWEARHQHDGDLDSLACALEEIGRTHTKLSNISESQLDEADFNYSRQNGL

Target: T1, mouse FLRT2 ectodomain (FLRT2^ecto), ITC construct (mouse) (UniProt Q8BLU0)
T1 sequence: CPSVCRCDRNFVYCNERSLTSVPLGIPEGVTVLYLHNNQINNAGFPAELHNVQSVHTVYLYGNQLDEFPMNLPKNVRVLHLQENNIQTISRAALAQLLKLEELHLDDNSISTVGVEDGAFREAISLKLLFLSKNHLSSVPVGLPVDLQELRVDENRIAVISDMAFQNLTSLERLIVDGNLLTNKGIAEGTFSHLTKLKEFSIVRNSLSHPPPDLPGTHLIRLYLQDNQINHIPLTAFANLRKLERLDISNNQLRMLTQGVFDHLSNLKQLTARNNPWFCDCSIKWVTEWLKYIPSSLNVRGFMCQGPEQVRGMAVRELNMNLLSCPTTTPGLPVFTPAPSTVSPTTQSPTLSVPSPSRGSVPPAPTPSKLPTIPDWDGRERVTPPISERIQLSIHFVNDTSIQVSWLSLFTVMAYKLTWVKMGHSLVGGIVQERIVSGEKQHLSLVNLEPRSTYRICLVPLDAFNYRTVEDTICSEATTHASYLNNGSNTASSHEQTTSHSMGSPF
Assay: ITC; MicroCal iTC200, 25 °C; 100 μM protein in the syringe, 10 μM in the cell; for the triple complex FLRT2^ecto+Lphn3^Olf in the cell and Unc5D^ecto injected; single-site model; both purified

## Unc5D ectodomain (Unc5D^ecto), ITC construct (from UniProt Q6UXZ4) (domain or fragment)
  binding: binds
